Measured values taken from paper doi:10.1101/2025.04.03.647056.
Positions count from the first letter of the chain named. No constants are given. Whether binding was seen depends on the method and setting. For some of these results: Binding seen in cells or lysates may run through a third protein. For some of these results: Binding calls can cover weak binding; strength is not graded here. For some of these results: Tags and fused reporters may be left off the sequences shown.

Key:
[1] = molecular target: T1, NHSL3ΔSH3ΔFP4-1/2-EGFP (Abi SH3 binding site and both EVH1 binding motifs mutated) (mouse) (UniProt A2A7S8); test: co-IP
T1 sequence: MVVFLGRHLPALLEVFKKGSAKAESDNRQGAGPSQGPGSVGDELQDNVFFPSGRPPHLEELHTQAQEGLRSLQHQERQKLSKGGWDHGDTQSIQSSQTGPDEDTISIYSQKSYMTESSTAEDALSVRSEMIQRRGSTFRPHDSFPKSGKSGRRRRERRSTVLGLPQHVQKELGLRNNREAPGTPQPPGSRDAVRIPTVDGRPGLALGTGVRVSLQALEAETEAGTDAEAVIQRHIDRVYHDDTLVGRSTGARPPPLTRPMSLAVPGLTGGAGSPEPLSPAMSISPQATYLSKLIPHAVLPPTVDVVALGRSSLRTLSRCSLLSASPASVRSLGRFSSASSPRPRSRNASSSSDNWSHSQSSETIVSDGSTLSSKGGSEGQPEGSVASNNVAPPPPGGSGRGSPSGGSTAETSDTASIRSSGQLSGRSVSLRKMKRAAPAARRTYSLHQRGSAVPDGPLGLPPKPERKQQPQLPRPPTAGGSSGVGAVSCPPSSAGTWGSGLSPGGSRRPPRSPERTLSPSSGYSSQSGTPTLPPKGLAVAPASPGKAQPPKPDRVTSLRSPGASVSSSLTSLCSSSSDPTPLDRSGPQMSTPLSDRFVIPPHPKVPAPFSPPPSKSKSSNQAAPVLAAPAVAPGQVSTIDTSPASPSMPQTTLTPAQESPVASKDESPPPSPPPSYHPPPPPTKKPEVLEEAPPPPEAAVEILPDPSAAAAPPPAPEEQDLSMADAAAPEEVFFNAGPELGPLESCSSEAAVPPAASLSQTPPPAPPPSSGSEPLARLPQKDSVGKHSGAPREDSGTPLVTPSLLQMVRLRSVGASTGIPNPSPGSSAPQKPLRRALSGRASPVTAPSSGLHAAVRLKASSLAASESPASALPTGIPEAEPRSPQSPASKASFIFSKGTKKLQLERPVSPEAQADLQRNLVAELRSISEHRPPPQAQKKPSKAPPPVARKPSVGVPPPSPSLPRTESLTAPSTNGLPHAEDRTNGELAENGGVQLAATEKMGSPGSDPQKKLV

[2] = molecular target: T2, NHSL3ΔFP4-1/2-EGFP (both EVH1 domain binding motifs mutated) (mouse) (UniProt A2A7S8); test: co-IP
T2 sequence: T1 sequence with A436P, A437P, A439P, A440P

[3] = molecular target: T2, NHSL3ΔFP4-1/2-EGFP (both EVH1 domain binding motifs mutated) (mouse); test: co-IP; remark: listed apart in the source
[4] = molecular target: endogenous NHSL3 (mouse (endogenous in B16-F1)) (UniProt A2A7S8); test: co-IP
[5] = molecular target: T3, GST-tagged NHSL3 fragment 4 (aa535-701) (mouse) (UniProt A2A7S8); test: far-Western, overlay or dot blot
T3 sequence: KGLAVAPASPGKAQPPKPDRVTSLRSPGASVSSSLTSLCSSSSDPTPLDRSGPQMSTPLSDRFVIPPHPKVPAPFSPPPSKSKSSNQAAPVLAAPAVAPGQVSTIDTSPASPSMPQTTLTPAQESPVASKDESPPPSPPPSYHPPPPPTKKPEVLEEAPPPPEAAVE

[6] = molecular target: T4, GST-tagged NHSL3 fragment 1 (mouse) (UniProt A2A7S8); test: far-Western, overlay or dot blot
T4 sequence: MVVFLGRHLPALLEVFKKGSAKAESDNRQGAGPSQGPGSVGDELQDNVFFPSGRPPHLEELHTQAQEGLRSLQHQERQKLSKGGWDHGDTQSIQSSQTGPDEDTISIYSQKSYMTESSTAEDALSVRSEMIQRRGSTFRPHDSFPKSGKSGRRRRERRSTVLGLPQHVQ

[7] = molecular target: T5, NHSL3ΔEVH1-2-EGFP (second EVH1 domain binding motif mutated) (mouse) (UniProt A2A7S8); test: pull-down
T5 sequence: T1 sequence with A436P, A437P, A439P, A440P, A708W, A709P, A710P, A711P

[8] = molecular target: NHSL3-EGFP (wild-type mouse NHSL3 isoform 1c, C-terminally tagged with EGFP) (mouse) (UniProt A2A7S8); test: pull-down
[9] = molecular target: T6, NHSL3ΔEVH1-1-EGFP (first EVH1 domain binding motif mutated) (mouse) (UniProt A2A7S8); test: pull-down
T6 sequence: T1 sequence with A436P, A437P, A439P, A440P, A726F, A727P, A728P

[10] = molecular target: T2, NHSL3ΔFP4-1/2-EGFP (both EVH1 domain binding motifs mutated) (mouse); test: pull-down

Question: For Myc-Abi1 (human (printed as hsAbi1d)), which binding [1] is on record?
Answer: binds

Question: And the binding [2]?
Answer: binds

Question: What about the binding [3] of the same substance?
Answer: binds

Question: Which binding [4] does the source give for endogenous Mena (from UniProt Q03173-3) here?
Answer: binds

Question: “MBP-Abi1 (full length) (human (printed as hsAbi1d))” was tested. Which binding [5] did it give?
Answer: no binding

Question: And the binding [6]?
Answer: no binding

Question: Myc-Mena (from UniProt Q03173-3) was tested. Which binding [7] did it give?
Answer: no binding

Question: What about the binding [8] of the same substance?
Answer: binds

Question: What about the binding [9] of the same substance?
Answer: no binding

Question: What about the binding [10] of the same substance?
Answer: no binding
